In the experiment the test system is primary human hepatic stellate cells (donor 1). As to the kind of experiment: percent Bodipy-positive cells; higher = more lipid droplet accumulation. The following applies: 48 h.
Setting [1] is: library stock concentration: 3.33 mM.
Where [2] appears, read: library stock concentration: 10 mM.
Where [3] appears, read: library stock concentration: 80 uM.
Where [4] appears, read: library stock concentration: 400 uM.
[5] abbreviates: library stock concentration: 2 mM.
[6] abbreviates: library stock concentration: 1 mM.

Each structure is given as a SMILES string. Where “and” joins values, the source holds several entries; their conditions need not be identical. Equal entries are not always repeated. Structures can show the parent of a compound that is named as a salt. ± gives the standard deviation of the averaged measurements. The list shows a part of the results. Baselines shift from plate to plate; read single values as rough.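 Primary human stellate myofibroblasts activated in culture; inactivation shown by regained lipid droplets. Readout: fraction of Hoechst-counted cells exceeding a per-plate Bodipy threshold, duplicate wells, each plate with DMSO negative and nortriptyline positive controls. Hits: control-normalized score beyond the plate's top-tenth-percentile nortriptyline wells, or among its three best wells. Final well concentrations unstated.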

Take `CC(=O)[C@H]1CC[C@H]2[C@@H]3CC=C4C[C@@H](O)CC[C@]4(C)[C@H]3CC[C@]12C` [Pregnenolone]: the “percent Bodipy-positive cells” value came out at 21.93 ± 0.061%. Moreover, the “percent Bodipy-positive cells” value under setting [1] amounted to 8.52 ± 0.8%. Also, the “percent Bodipy-positive cells” value (library stock concentration: 6.3 mM) amounted to 10.4 ± 3.4%. Also, the “percent Bodipy-positive cells” value under setting [2] is 14.2% and 35%.

In the case of `CN[C@H]1CC[C@@H](c2ccc(Cl)c(Cl)c2)c2ccccc21` [Sertraline], the “percent Bodipy-positive cells” value was 89.9 ± 4.5%.

For `Oc1cc2c(cc1O)[C@@H]1c3ccc(O)c(O)c3OC[C@]1(O)C2` [Hematoxylin], the “percent Bodipy-positive cells” value under setting [1] was 4.63 ± 0.3% and the “percent Bodipy-positive cells” value under setting [2] was 10.6 ± 1.8%.

Consider `CC(C(=O)O)c1ccc2c(c1)CC(=O)c1ccccc1S2` (stereo unspecified) [Zaltoprofen], for which the “percent Bodipy-positive cells” value by setting is: under setting [1], 11 ± 8.1%; under setting [2], 11.2 ± 0.24%.

For the compound `C[C@@H]1CCNC(=O)c2cc3ccc(C(=O)Nc4nc5ccccc5n4CCCN(C)C)cc3n21`, the “percent Bodipy-positive cells” value runs as follows: under setting [3], 11.3 ± 2.1%; under setting [4], 9.6 ± 1.8%; under setting [5], 11.5 ± 2.2%; under setting [2], 33.2 ± 7%.

`Cc1nc(-c2ccc(OCC(C)C)c(C#N)c2)sc1C(=O)O`: the “percent Bodipy-positive cells” value under setting [2] stood at 29.8 ± 4.9%.

Take `Cc1nc(-c2ccc(OCC(C)C)c(C#N)c2)sc1C(=O)O` [Febuxostat]: the “percent Bodipy-positive cells” value was 7.12 ± 2.5% under setting [3]; 16.1 ± 14% under setting [4]; 9.89 ± 1.8% under setting [5]; 5.85 ± 1.8% under setting [1]; 13.6% and 3.71% under setting [2].

In the case of `CC(C)(C)c1ccc(C(O)CCCN2CCC(C(O)(c3ccccc3)c3ccccc3)CC2)cc1` (stereo unspecified) [Terfenadine], the “percent Bodipy-positive cells” value was determined as 54 ± 10%. In addition, the “percent Bodipy-positive cells” value under setting [2] was 94.38 ± 0.88%.

For the compound `CC(COc1ccccc1)NC(C)C(O)c1ccc(O)cc1` (stereo unspecified) [Isoxsuprine hydrochloride], the “percent Bodipy-positive cells” value is 43.1 ± 2.3%. Moreover, the “percent Bodipy-positive cells” value (library stock concentration: 5.9 mM) is 17.8 ± 5.5%. Moreover, the “percent Bodipy-positive cells” value under setting [2] is 43 ± 5.2%.

Turning to `CC(COc1ccccc1)NC(C)C(O)c1ccc(O)cc1` (stereo unspecified) [Duvadilan], the “percent Bodipy-positive cells” value under setting [2] came to 66.1 ± 3.1%.

`C[C@H]1O[C@@H](Oc2c(-c3cc(O)c(O)c(O)c3)oc3cc(O)cc(O)c3c2=O)[C@@H](O)[C@@H](O)[C@@H]1O` [Myricitrin]: the “percent Bodipy-positive cells” value by setting is: under setting [1], 8.09 ± 3.8%; under setting [2], 9.58 ± 1.2%.

As for `CC[C@@H](C(=O)[C@@H](C)[C@@H](O)[C@H](C)CCc1ccc(C)c(O)c1C(=O)O)[C@H]1O[C@](CC)([C@H]2CC[C@](O)(CC)[C@H](C)O2)C[C@@H]1C` [Lasalocid sodium], the “percent Bodipy-positive cells” value under setting [2] is 76.7 ± 0.81%.

Regarding `CC[C@@H](C(=O)[C@@H](C)[C@@H](O)[C@H](C)CCc1ccc(C)c(O)c1C(=O)O)[C@H]1O[C@](CC)([C@H]2CC[C@](O)(CC)[C@H](C)O2)C[C@@H]1C` [Lasalocid sodium salt], the “percent Bodipy-positive cells” value amounted to 46.8 ± 11%.

Turning to `C=C1/C(=C\C=C2/CCC[C@]3(C)[C@@H]([C@H](C)/C=C/[C@H](C)C(C)C)CC[C@@H]23)C[C@@H](O)C[C@@H]1O` [Doxercalciferol], the “percent Bodipy-positive cells” value worked out at 8.13 ± 2.1% under setting [1] and 24.4 ± 2.5% under setting [2].

As to `Cc1ccc2c(=O)c3cccc(CC(=O)O)c3oc2c1C` [DMXAA (Vadimezan)], the “percent Bodipy-positive cells” value runs as follows: under setting [1], 6.78 ± 0.83%; under setting [2], 11.7 ± 3.4%.

As to `O=C(O)CCC/C=C\C[C@@H]1[C@@H](/C=C/[C@@H](O)COc2cccc(Cl)c2)[C@H](O)C[C@@H]1O` [(+)-Cloprostenol], the “percent Bodipy-positive cells” value under setting [6] was 16.7 ± 1.1%.

As for `CCCCCCCCCCCCCCCCCCCCCCCCCCCCCCO` [n-Triacontanol], the “percent Bodipy-positive cells” value under setting [6] is 16 ± 5.6%.

Regarding `CCOC(=O)c1[nH]c2cc(Cl)ccc2c1C(C(=O)NC(C)(C)C)N(C=O)Cc1ccc(Cl)cc1` (stereo unspecified), the “percent Bodipy-positive cells” value came out at 29.2 ± 2.5% under setting [1] and 67.8 ± 0.83% under setting [2].

In the case of `CCOC(=O)c1ccc(N=Nc2ccc(O)c(CC(=O)O)c2)cc1`, under setting [6], the “percent Bodipy-positive cells” value worked out at 8.53 ± 1.5%.

Turning to `CCCCN1CCCCC1C(=O)Nc1c(C)cccc1C` (stereo unspecified) [Bupivacaine HCl], the “percent Bodipy-positive cells” value runs as follows: under setting [1], 16.5 ± 4.3%; (library stock concentration: 6.9 mM) 8.85 ± 6.2%; under setting [2], 21.7 ± 5.5%.

As for `CCCCN1CCCCC1C(=O)Nc1c(C)cccc1C` (stereo unspecified) [Bupivacaine hydrochloride], the “percent Bodipy-positive cells” value amounted to 26.8 ± 7.7%. In addition, where the note is “library stock concentration: 6.2 mM”, the “percent Bodipy-positive cells” value turned out to be 12.4 ± 7.2%. In addition, the “percent Bodipy-positive cells” value under setting [2] was determined as 42.5 ± 7.6%.

As to `CO/N=C1\C[C@]2(C[C@@H]3C[C@@H](C/C=C(\C)C[C@@H](C)/C=C/C=C4\CO[C@@H]5[C@H](O)C(C)=C[C@@H](C(=O)O3)[C@]45O)O2)O[C@H](/C(C)=C/C(C)C)[C@H]1C`, the “percent Bodipy-positive cells” value under setting [2] was 40.29 ± 0.066%.

Consider `CCOC(=O)NNc1nncc2ccccc12` [Todralazine hydrochloride], for which the “percent Bodipy-positive cells” value came out at 40.4 ± 5%. Also, the “percent Bodipy-positive cells” value under setting [2] was 29.5 ± 1.3%.

With `CCN(CC)CCNC(=O)c1c(C)[nH]c(/C=C2\C(=O)Nc3ccc(F)cc32)c1C.O=C(O)C[C@H](O)C(=O)O` [Sunitinib malate], the “percent Bodipy-positive cells” value under setting [5] worked out at 90.8 ± 3.1%.

With `C(/c1c2cccc1)(=C/CCN(C)C)\c3c(cccc3)C=C2.Cl` [Cyclobenzaprine hydrochloride], the “percent Bodipy-positive cells” value worked out at 77 ± 2.9%.

`C[N+](C)(C)[C@@H](Cc1c[nH]c(=S)[nH]1)C(=O)[O-]` [Ergothioneine]: the “percent Bodipy-positive cells” value (library stock concentration: 8.7 mM) was determined as 9.26 ± 1.3%.

Consider `Cn1cc(C2=C(c3c4n(c5ccccc35)CCC(CN)C4)C(=O)NC2=O)c2ccccc21` (stereo unspecified) [Bisindoylmaleimide X HCl salt (Ro 31-8425) (2 mM)], for which the “percent Bodipy-positive cells” value under setting [5] is 13.8 ± 2.5%.

`Cn1cc(C2=C(c3c4n(c5ccccc35)CCC(CN)C4)C(=O)NC2=O)c2ccccc21` (stereo unspecified) [Bisindoylmaleimide X HCl salt (Ro 31-8425) (0.4 mM)]: under setting [4], the “percent Bodipy-positive cells” value was determined as 5.89 ± 1.1%.

As for `Cn1cc(C2=C(c3c4n(c5ccccc35)CCC(CN)C4)C(=O)NC2=O)c2ccccc21` (stereo unspecified) [Bisindoylmaleimide X  HCl salt (Ro 31-8425) (10 mM)], under setting [2], the “percent Bodipy-positive cells” value was 68.3 ± 25%.

In the case of `O=C1C(=O)c2ccccc2C(O)=C1C1CCC(c2ccc(Cl)cc2)CC1` (stereo unspecified) [Atovaquone], the “percent Bodipy-positive cells” value runs as follows: under setting [1], 7.74 ± 0.74%; under setting [2], 11.3 ± 3.6%.

In the case of `CC(=O)N[C@@H](C=O)[C@@H](O)[C@H](O)[C@H](O)CO` [Acetylglucosamine], under setting [2], the “percent Bodipy-positive cells” value was determined as 26.8 ± 10%.

The values above are taken from the supplement of paper PMC9135407.
